PubChem BioAssay AID1224830 | NIAID – 2016
The whole screen tested about 18,000 reagents; shown is a random part of them. Over the whole deposit, about 2,900 (16%) were called active. 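Calls are made per well; low scores hint the gene aids the LPS response, high scores that it dampens it.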 Entries without a mark were called inactive. Repeated entries: four replicate wells of each siRNA pool.

Assay: 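Host factors that control LPS-induced TNF expression in human macrophages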 (primary screen)
Cells: human THP-1 monocytic leukaemia cells, TNF dual-luciferase reporter clone, PMA-differentiated to macrophage-like cells
Knock-down reagent: siRNA pool against human genes, 50 nM
Timing: LPS for 4 h, given about 3 days after siRNA transfection
Conditions: bacterial LPS (TLR4 ligand), 10 ng/ml
Measured: 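Ratio of firefly to renilla light, scaled to the plate median and expressed as a robust z-score per replicate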
Scale: TNF reporter robust z-score: higher = stronger TNF reporter response to LPS
Active means: 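a well is active when its z-score exceeds 2.8 or falls below -1.5; control wells carry no call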

gene | TNF reporter robust z-score
BCORL1 | -0.42
BCORL1 | -0.5
BCORL1 | -0.1
BCORL1 | -0.77
NDUFV1-DT | 0.62
NDUFV1-DT | 1.43
NDUFV1-DT | 1.14
NDUFV1-DT | 1.18
CPNE3 | -0.99
CPNE3 | -0.95
CPNE3 | -0.48
CPNE3 | -1.46
RAB8B | -0.7
RAB8B | -0.67
RAB8B | -1.28
RAB8B | -0.47
C11orf24 | -0.37
C11orf24 | 0.3
C11orf24 | -0.59
C11orf24 | 0.32
BRSK1 | 0.6
BRSK1 | 0.58
BRSK1 | 1.92
BRSK1 | 1.42
RTN4IP1 | -1.9 (active)
RTN4IP1 | -1.28
RTN4IP1 | -1.23
RTN4IP1 | -0.61
LYZL6 | -0.77
LYZL6 | 0.51
LYZL6 | 0.77
LYZL6 | 0.56
ADAM7 | 0.93
ADAM7 | -0.26
ADAM7 | -0.03
ADAM7 | 0.77
RTL8A | -0.77
RTL8A | -1.3
RTL8A | -1.36
RTL8A | -0.6
BEST3 | -0.07
BEST3 | -0.17
BEST3 | -0.1
BEST3 | 0.06
BPIFA2 | -0.93
BPIFA2 | -0.34
BPIFA2 | -0.8
BPIFA2 | -0.38
TIMP1 | 0.57
TIMP1 | 2.37
TIMP1 | 1.9
TIMP1 | 1.13
DKK1 | 1.12
DKK1 | 2.3
DKK1 | -0.5
DKK1 | -0.87
PPP1R27 | -0.18
PPP1R27 | -0.43
PPP1R27 | 2.91 (active)
PPP1R27 | -0.3
FREM2 | -0.92
FREM2 | -0.84
FREM2 | -1.03
FREM2 | -0.38
OR8U8 | 1.45
OR8U8 | -0.7
OR8U8 | 0.29
OR8U8 | -0.39
PRSS27 | -1.25
PRSS27 | -0.69
PRSS27 | -0.07
PRSS27 | 0.15
NEXN | -0.36
NEXN | -0.92
NEXN | -0.37
NEXN | 0.07
BRD4 | 0.07
BRD4 | 0.61
BRD4 | 0.53
BRD4 | 0.08
PLCG1 | -1
PLCG1 | -0.34
PLCG1 | -0.66
PLCG1 | -0.45
PLCXD1 | -0.48
PLCXD1 | 0.12
PLCXD1 | -0.81
PLCXD1 | -0.35
SIAH2 | 0.4
SIAH2 | -0.45
SIAH2 | -1.95 (active)
SIAH2 | 0.86
PTPN11 | 0.06
PTPN11 | 1.51
PTPN11 | -0.66
PTPN11 | -0.71
RHOBTB1 | 0.26
RHOBTB1 | 0.14
RHOBTB1 | -0.67
RHOBTB1 | -0.06
SF3B5 | -0.19
SF3B5 | 0.07
SF3B5 | -0.17
SF3B5 | -0.57
RWDD2B | 2.4
RWDD2B | 3.32 (active)
RWDD2B | 3.51 (active)
RWDD2B | 2.72
GK2 | -0.71
GK2 | -1.2
GK2 | -1.22
GK2 | -1.03

7 entries from above, ordered by “TNF reporter robust z-score”, low to high.
gene | TNF reporter robust z-score
DKK1 | -0.87
DKK1 | -0.5
PPP1R27 | -0.43
PPP1R27 | -0.18
DKK1 | 1.12
TIMP1 | 1.13
DKK1 | 2.3
